This is one part of the list.
target: T1, OsSMF1 (Oryza sativa, UniProt Q6ZLB0 1-436); experiment: protein-binding microarray (RPBM); PBS, 2% BSA, 51.3 ng/ul salmon testes DNA, 50 uM zinc acetate, 200 nM TF, 25 C, 1 h; high values mean tight binding; settings: protein: recombinant; tags: N-terminal polyhistidine and DsRed monomer fusion (pET32a); chain copies: 2; label: CyDye5-dUTP incorporated in the synthesized complementary strand; 3' TTTTT single-stranded linker to array surface; dsDNA, one strand shown
T1 sequence: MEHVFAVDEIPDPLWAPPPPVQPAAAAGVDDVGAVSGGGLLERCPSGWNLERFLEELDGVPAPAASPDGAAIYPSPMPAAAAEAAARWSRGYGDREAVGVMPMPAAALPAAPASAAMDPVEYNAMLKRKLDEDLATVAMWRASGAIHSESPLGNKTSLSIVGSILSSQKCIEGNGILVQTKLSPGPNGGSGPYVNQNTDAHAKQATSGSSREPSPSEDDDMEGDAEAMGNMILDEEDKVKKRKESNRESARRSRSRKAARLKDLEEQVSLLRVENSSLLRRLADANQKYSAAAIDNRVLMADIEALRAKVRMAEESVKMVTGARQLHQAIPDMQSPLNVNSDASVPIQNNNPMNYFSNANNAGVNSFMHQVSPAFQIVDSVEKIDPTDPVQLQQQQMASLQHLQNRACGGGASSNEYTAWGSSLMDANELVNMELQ
Summary of the method: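 The binding signal is fluorescence intensity per feature, in arbitrary units, read on an Axon 4000B scanner. Polyhistidine- and DsRed-tagged transcription factors (N-terminal fusions) from E. coli BL21-CodonPlus were purified on Ni–NTA and applied at 200 nM for 1 h at 25 °C to a double-stranded, BSA-blocked custom Agilent array in buffer with 50 µM zinc acetate.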

Sequence	binding signal
ATATGGCATTGTTTCTGTGTTATTCAGGCGCACCTTTAAACGGAGTCACCTAGTGCAG	3210 fluorescence intensity (a.u.)
CGGTAGGACAATCTATGTGACATGGCACCCTGTGGGTTGCCGGAGTCACCTAGTGCAG	8010 fluorescence intensity (a.u.)
AAACAACAGTTGTCTGACTTGAGTTGCTGATTTCGACGTTCGGAGTCACCTAGTGCAG	3900 fluorescence intensity (a.u.)
CGCTACCGTGGCATGCCACGTCACCGGATGGAGCGGGTCGCGGAGTCACCTAGTGCAG	20100 fluorescence intensity (a.u.)
CTCATCTCTCCCACCTCCATCACCAAACCAGCACAGGTCGCGGAGTCACCTAGTGCAG	3240 fluorescence intensity (a.u.)
GTTTTAGCGGATGTGGCATCATTTTCAGCATAATAATAATCGGAGTCACCTAGTGCAG	4520 fluorescence intensity (a.u.)
TCGGAGACAAACTCGTACTGCAAAGCCTACGTGAAAATCGCGGAGTCACCTAGTGCAG	28900 fluorescence intensity (a.u.)
TAACTGTGTGTGATGGTTGGATGGAAGGAGAGGCCCTGCACGGAGTCACCTAGTGCAG	37800 fluorescence intensity (a.u.)
GTTGACGTCTCCCAAGTGCCACACCCGCCGCCACGTCACTCGGAGTCACCTAGTGCAG	35500 fluorescence intensity (a.u.)
CTGCTCGACGCCGCCTGCGACAGACGCGTCACGGACCTTCCGGAGTCACCTAGTGCAG	5620 fluorescence intensity (a.u.)
CCATGTCCCAGCATCGCGGAGGTGTGTCCCTACATGTCAGCGGAGTCACCTAGTGCAG	3340 fluorescence intensity (a.u.)
GGTTTATGGGTGCCGATGTGGTTAAAATCATTTATGTGCTCGGAGTCACCTAGTGCAG	5050 fluorescence intensity (a.u.)
TTCAGCAAACACTTCTAAACATGCCTGCGGATGTTTTGGGCGGAGTCACCTAGTGCAG	13600 fluorescence intensity (a.u.)
AACTTAACAGCTCAAGCTTAATTCTGGGCCAAATTCACCACGGAGTCACCTAGTGCAG	3420 fluorescence intensity (a.u.)
ACGCGAGGATGTCGACGAGGCGGTGGGCGACGCAAACCCGCGGAGTCACCTAGTGCAG	3480 fluorescence intensity (a.u.)
TATATGGTACTGTACGTATACGTGTCCAGCTATATATTCACGGAGTCACCTAGTGCAG	6670 fluorescence intensity (a.u.)
ATCTAGCGTGGTTACATGCTTGGGCCACGTCTCGGACCATCGGAGTCACCTAGTGCAG	3810 fluorescence intensity (a.u.)
GTCTATTTAATCCTGTATCACGCCCAGATTCCTGAGTCCACGGAGTCACCTAGTGCAG	3180 fluorescence intensity (a.u.)
CAACTAGAAATCAGATCCACGTCTACTAGTACAGATATGTCGGAGTCACCTAGTGCAG	4810 fluorescence intensity (a.u.)
TCACCAATTTGCATGGAACCGTGGCTGTTTGGCGGTGCCACGGAGTCACCTAGTGCAG	3330 fluorescence intensity (a.u.)
ACTTATCTTGTTATAGCTGACGACGACATTCTGATGTGTCCGGAGTCACCTAGTGCAG	6840 fluorescence intensity (a.u.)

Sequence	binding signal
GCGTTCGCGTATATATCCCTCTCCTCACACACACAGGTGTCGGAGTCACCTAGTGCAG	3510 fluorescence intensity (a.u.)
TACGTGTGGATTTTCTCGCCGGAGTTATCACGAGAATTCGCGGAGTCACCTAGTGCAG	3200 fluorescence intensity (a.u.)
ACTGGCATATGATAAGCAGTTCACATTACATCATTTAAAACGGAGTCACCTAGTGCAG	5150 fluorescence intensity (a.u.)
CGCATCGCATCTATGACTGGAGAGTGTATCTTTGCTTGCACGGAGTCACCTAGTGCAG	3180 fluorescence intensity (a.u.)
CTTCTCCAGGCTCCAGCTCAGGTTGCTGATCCGCTCCTTTCGGAGTCACCTAGTGCAG	27000 fluorescence intensity (a.u.)
TCGACGATCACTTCATAGGATTCCCTCTCTTTCTACAATCCGGAGTCACCTAGTGCAG	6640 fluorescence intensity (a.u.)
AGCGCTCTGGACTGAACAGTCCTCACAGCCACCGCCTCCGCGGAGTCACCTAGTGCAG	3910 fluorescence intensity (a.u.)
GGTGTCCTTCCAAATTCGACTCTGCATCCCATACGCACACCGGAGTCACCTAGTGCAG	3650 fluorescence intensity (a.u.)
GGAGAAGGTTGTCACTGCATATTGCATCATTGCATGAGTGCGGAGTCACCTAGTGCAG	4950 fluorescence intensity (a.u.)
TTTTACATATGGCAGAAATTTGCAACTCTTGAGTCATCTGCGGAGTCACCTAGTGCAG	5130 fluorescence intensity (a.u.)
GCGGCGGGGTGTCGCGGTGGTGGGTGAAGGCGACGTCGACCGGAGTCACCTAGTGCAG	3330 fluorescence intensity (a.u.)
TCCTCCTCTCCCTCGCCATGCTCGCCTTCGAGACGGTGGCCGGAGTCACCTAGTGCAG	3240 fluorescence intensity (a.u.)
GTTAATTACTTGAACCACGTAAGAAAACAAGGACACATGCCGGAGTCACCTAGTGCAG	3200 fluorescence intensity (a.u.)
TTCCTACATTCATATTGATGCCAATGAATCTAGATATGAACGGAGTCACCTAGTGCAG	12100 fluorescence intensity (a.u.)
ATGTATAACTTAGATCCATACACACGTGGACGACGGGTGACGGAGTCACCTAGTGCAG	7540 fluorescence intensity (a.u.)
TCTTTGTGTTCTTGCTCTCTCTCACCATTACACGTCGAATCGGAGTCACCTAGTGCAG	5510 fluorescence intensity (a.u.)
GCCGGCTCGCCTCTGGCACGCCCACCTCATCCGCCTCCACCGGAGTCACCTAGTGCAG	4870 fluorescence intensity (a.u.)
CGTCCCTCTGACGTAGAAGCCACTGCGTCAGAGGATCCGGCGGAGTCACCTAGTGCAG	5510 fluorescence intensity (a.u.)
CGGTCCTCTTCCTCCGTTCTCCTCTTCCCCTTGCCCTCCTCGGAGTCACCTAGTGCAG	28400 fluorescence intensity (a.u.)
TGCGACGTGGCGACAACTCATCACGCCCCTCGTTTCCCTGCGGAGTCACCTAGTGCAG	11800 fluorescence intensity (a.u.)
TTTTGTATACTCCACGTAGACGCATATTACAAGCCAACTACGGAGTCACCTAGTGCAG	6510 fluorescence intensity (a.u.)

Sequence	binding signal
CCGCCGTAGCAGCAGCATCATCATCATCAACAACAGCAGCCGGAGTCACCTAGTGCAG	3410 fluorescence intensity (a.u.)
AGGTTTGGGTTGAGATGGGAGTAGAGGGGAGTGAGGTGGACGGAGTCACCTAGTGCAG	6150 fluorescence intensity (a.u.)
TGTTCCGTTGTCAAATGACTGTACATCTTATATTTGCCAACGGAGTCACCTAGTGCAG	5510 fluorescence intensity (a.u.)
GAAAGGGATGGCTCACTTGAAACGTACTGCTCCCTGCCCCCGGAGTCACCTAGTGCAG	3160 fluorescence intensity (a.u.)
CGCTTCCAAGGGAGGCTTAGAGCAAGTTCAATAGTATAGCCGGAGTCACCTAGTGCAG	5030 fluorescence intensity (a.u.)
GTTTGCAGTTGCAGACACAGCCCGGCATCTTCCATCTTTTCGGAGTCACCTAGTGCAG	28000 fluorescence intensity (a.u.)
AGAGGGTTTGTGATTTTAGTCTAATAGCGGCATGTCAGTACGGAGTCACCTAGTGCAG	4250 fluorescence intensity (a.u.)
TGATCGATCACACACGTTGCCATCACCAACTTTTCACAGACGGAGTCACCTAGTGCAG	3940 fluorescence intensity (a.u.)
AGACATATTTTAGCATGAATCATCATCACAGGGAAGTAAGCGGAGTCACCTAGTGCAG	4310 fluorescence intensity (a.u.)
TATTCGTGATGTCATGTGACCTAAACAAATGTGTGCCATTCGGAGTCACCTAGTGCAG	4700 fluorescence intensity (a.u.)
TCGGCGGATCGGTGGGTTGCGGGCTTGCACGTAGTCGAGGCGGAGTCACCTAGTGCAG	16100 fluorescence intensity (a.u.)
AGGTCTGATGCCTCCTACAAACTCGAAAATTCCGATAGAACGGAGTCACCTAGTGCAG	3180 fluorescence intensity (a.u.)
TGCCTGCTTCGCCCACCGTCACCCTGTCAGCTTTGTGTGCCGGAGTCACCTAGTGCAG	5560 fluorescence intensity (a.u.)
ATACTAATACTCCATGGCGTGGCGTCTCATCATGTCTCGACGGAGTCACCTAGTGCAG	5590 fluorescence intensity (a.u.)
GCAGGTTCCTGCATTAAACTCACGAAATAATAAAGGTAAGCGGAGTCACCTAGTGCAG	15400 fluorescence intensity (a.u.)
GATATCATGTAGGAGTAGTAGTTGTTATGTGTGTGGGCTACGGAGTCACCTAGTGCAG	13000 fluorescence intensity (a.u.)
ACAGCAAAACACACTCTCATCAGTGTCAGGTCTCCACACCCGGAGTCACCTAGTGCAG	3710 fluorescence intensity (a.u.)
AAAAGTGTGTATTGCCCAAATGCCATTTTACTAAAGGGATCGGAGTCACCTAGTGCAG	11600 fluorescence intensity (a.u.)
GGAGAGGGAGACAGCCGTGGTGGCGTGGTCTCGTCTCTTCCGGAGTCACCTAGTGCAG	3240 fluorescence intensity (a.u.)
AATTCACTCAGTCATCACACACTCAGTCATCACAAGTATACGGAGTCACCTAGTGCAG	3590 fluorescence intensity (a.u.)
GGAAATAGTAAATAGCTACTACCAAGCCATAAGCTTACTACGGAGTCACCTAGTGCAG	17900 fluorescence intensity (a.u.)

Sequence	binding signal
CGTCATTAGACAAGAAACAGGGTTCCACAAACTAGTGCTACGGAGTCACCTAGTGCAG	13900 fluorescence intensity (a.u.)
AGCCGAGGAGCGAGGAGCTCTGCCGCATCCACCTCAATCTCGGAGTCACCTAGTGCAG	3270 fluorescence intensity (a.u.)
CCTCGTCAATCCTCTACATCCTGCGTTTCTTCCCCGTATACGGAGTCACCTAGTGCAG	3470 fluorescence intensity (a.u.)
GTGCAGAACATAGTACGTGTCAGGTGTCACTGTTAAACGCCGGAGTCACCTAGTGCAG	8690 fluorescence intensity (a.u.)
CTGTCGCCTCCAGCCCCAGCGTCGGACATGGCGCCGGGAGCGGAGTCACCTAGTGCAG	3210 fluorescence intensity (a.u.)
TTGCACATGCTGATTATTACATATTGCTACGTCCTTTTGCCGGAGTCACCTAGTGCAG	3230 fluorescence intensity (a.u.)
CCCACGTGAGTAAGCTCCTCCCTGCTGGTTTGATTCCCTTCGGAGTCACCTAGTGCAG	4650 fluorescence intensity (a.u.)
AATTTACTCCTGCGATTTGCAAATGAGTCACGTGCACGCGCGGAGTCACCTAGTGCAG	11700 fluorescence intensity (a.u.)
AAGAATCATCTCAAGTGTAAACACGTACGCGCTGCCAACCCGGAGTCACCTAGTGCAG	5670 fluorescence intensity (a.u.)
GCAAATAAAGAAGGAGATGACATAAGGGGTAGTAACTGGTCGGAGTCACCTAGTGCAG	3730 fluorescence intensity (a.u.)
GATGATACTGGCGTCAGATGAGGAACGGGTCAACGTGACACGGAGTCACCTAGTGCAG	4540 fluorescence intensity (a.u.)
AGCTCCAGCGACCGCCCGGACTTGCCGTCCCGGACGACGGCGGAGTCACCTAGTGCAG	29400 fluorescence intensity (a.u.)
TGAATATAAACACAACTACATTTAGCGACAGAAGAAGAACCGGAGTCACCTAGTGCAG	40600 fluorescence intensity (a.u.)
TCGCGCGTGTCACTGGGTTTGGGTTGGGTCTCTCTCTCTCCGGAGTCACCTAGTGCAG	3760 fluorescence intensity (a.u.)
AGCTCCATGATTCCGTCTATGCCGGTAGTGACACTGCAAGCGGAGTCACCTAGTGCAG	5160 fluorescence intensity (a.u.)
ATACTAGAATTTTGTGGTACCATCAGGTGCCTCCTCGAGGCGGAGTCACCTAGTGCAG	10200 fluorescence intensity (a.u.)
TCTCTCTGTCTTTACTAGTAAAATGGTAAAACTTTACCATCGGAGTCACCTAGTGCAG	21700 fluorescence intensity (a.u.)
TCATATACAATATGATCATGGCACATGACTCACACATTTGCGGAGTCACCTAGTGCAG	4940 fluorescence intensity (a.u.)
TTTATCAAAGCGTCATATATCAATGACCAGAGGTACAACACGGAGTCACCTAGTGCAG	3940 fluorescence intensity (a.u.)
GATGCGAAACGTGGCCCGAGCCTCCGCCTACACCGACCCGCGGAGTCACCTAGTGCAG	3360 fluorescence intensity (a.u.)
TCACTCAAGAAGGTGACTCATCTTTCATGTTTCTTGAAGTCGGAGTCACCTAGTGCAG	8550 fluorescence intensity (a.u.)

Given in markdown: part of the list above

| Sequence | binding signal |
| --- | --- |
| AGCTCCATGATTCCGTCTATGCCGGTAGTGACACTGCAAGCGGAGTCACCTAGTGCAG | 5160 fluorescence intensity (a.u.) |
| ATACTAGAATTTTGTGGTACCATCAGGTGCCTCCTCGAGGCGGAGTCACCTAGTGCAG | 10200 fluorescence intensity (a.u.) |
| TCTCTCTGTCTTTACTAGTAAAATGGTAAAACTTTACCATCGGAGTCACCTAGTGCAG | 21700 fluorescence intensity (a.u.) |
| TCATATACAATATGATCATGGCACATGACTCACACATTTGCGGAGTCACCTAGTGCAG | 4940 fluorescence intensity (a.u.) |
| TTTATCAAAGCGTCATATATCAATGACCAGAGGTACAACACGGAGTCACCTAGTGCAG | 3940 fluorescence intensity (a.u.) |
| GATGCGAAACGTGGCCCGAGCCTCCGCCTACACCGACCCGCGGAGTCACCTAGTGCAG | 3360 fluorescence intensity (a.u.) |
| TCACTCAAGAAGGTGACTCATCTTTCATGTTTCTTGAAGTCGGAGTCACCTAGTGCAG | 8550 fluorescence intensity (a.u.) |
